{
  "source": "patent US11382915B2",
  "about": "“Treatment of focal segmental glomerulosclerosis with CCR2 antagonists” (CHEMOCENTRYX, INC., priority 2017, dated 2022)",
  "tested_on": "partially nephrectomized mice",
  "experiment": "5/6 nephrectomy model",
  "assay_type": "in vivo",
  "details": "four-week study",
  "method": "5/6 nephrectomy mice on the 129X1/SvJ background were obtained from Jackson Laboratories, and were received at ChemoCentryx after the surgery was performed at JAX. Under isoflurane anesthesia, two-thirds of the left kidney mass was removed at 5-6 weeks of age. Then, after 7 to 10 days, a right unilateral nephrectomy was performed. The mice were fed a standard chow and had free access to water. Three weeks after the 5/6 nephrectomy, the mice were grouped to ensure a similar starting UAER in each treatment group. […] The RAAS blocker candesartan (AK Scientific, Union City, Calif.) and its vehicle were dosed orally once daily at 5 mg/kg formulated in water. […] The mice were housed individually in metabolic cages for quantitative collection of urinary albumin and creatinine.\nChemotaxis, calcium mobilization, and radio-ligand binding assays were conducted as previously described (Sullivan et al, 2013; Walters et al, 2010). Inhibition values (IC50) were calculated using non-linear regression with a one-site competition model (GraphPad Prism, GraphPad Software, La Jolla, Calif.). […] Urinary albumin was measured by ELISA (Bethyl Labs, Montgomery, Tex.). Urinary and serum creatinine was measured by LC-MS/MS at ChemoCentryx. The urinary albumin excretion rate (UAER) was calculated as micrograms per 24 h. Blood urea nitrogen (BUN) was measured by Antech Diagnostics (Morrisville, N.C.). […]",
  "note": "For at least one compound, name, drawing or mass did not settle the structure.",
  "data": [
    {"smiles": "CCOc1nc2cccc(C(=O)O)c2n1Cc1ccc(-c2ccccc2-c2nnn[nH]2)cc1", "note": "[RAAS Blocker, Candesartan]", "values": [
      {"measurement": "UACR, in words", "value": "significantly decreased"}
    ]}
  ]
}
